Experimental data published in publication PMC5643326.
Results are given in words; binding and its absence hold for the method and conditions named. In cells and extracts the contact can be indirect. Binding calls can cover weak binding; strength is not graded here. Sequences can lack the tags named with a protein.

Target: T1, Sch9-FLAG (yeast) (UniProt P11792)
T1 sequence: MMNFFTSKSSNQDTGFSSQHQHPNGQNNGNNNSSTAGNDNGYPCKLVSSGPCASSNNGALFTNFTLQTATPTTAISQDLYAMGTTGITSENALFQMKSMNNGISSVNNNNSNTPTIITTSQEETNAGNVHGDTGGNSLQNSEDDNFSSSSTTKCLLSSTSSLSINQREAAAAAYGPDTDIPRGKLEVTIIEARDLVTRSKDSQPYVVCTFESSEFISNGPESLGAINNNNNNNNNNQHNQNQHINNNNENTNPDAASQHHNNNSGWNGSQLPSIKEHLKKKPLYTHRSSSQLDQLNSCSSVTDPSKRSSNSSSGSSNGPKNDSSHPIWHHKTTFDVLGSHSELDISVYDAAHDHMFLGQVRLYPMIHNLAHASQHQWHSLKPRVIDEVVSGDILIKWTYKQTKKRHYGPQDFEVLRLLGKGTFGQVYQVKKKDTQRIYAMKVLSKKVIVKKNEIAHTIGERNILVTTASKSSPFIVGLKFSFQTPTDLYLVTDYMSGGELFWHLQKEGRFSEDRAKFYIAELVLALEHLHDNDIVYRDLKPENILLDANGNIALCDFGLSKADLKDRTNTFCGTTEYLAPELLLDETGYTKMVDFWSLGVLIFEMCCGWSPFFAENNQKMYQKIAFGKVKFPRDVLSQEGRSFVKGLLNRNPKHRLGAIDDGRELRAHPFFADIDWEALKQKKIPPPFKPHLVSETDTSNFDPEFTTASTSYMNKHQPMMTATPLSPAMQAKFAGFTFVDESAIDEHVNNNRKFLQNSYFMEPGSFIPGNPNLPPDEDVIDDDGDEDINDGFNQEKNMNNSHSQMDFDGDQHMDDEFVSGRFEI
Experiment: co-IP; Sch9-FLAG from cleared glass bead lysate (30-35 mg total protein) of Δsch9 + pYEPlac195-Sch9-FLAG cells bound to anti-FLAG M2 beads, 1 h at 4 °C; 20 mM HEPES-KOH, 150 mM potassium acetate, 2 mM magnesium acetate, 10% glycerol, pH 7.5; wash with 0.1% Triton X-100, then without detergent; immunoblot with α-Sch9, α-Ssb, α-Maf1; control: untagged Sch9

Ssa (yeast (endogenous in yeast cells)) was tested, and the binding was “binds”.
